PubChem BioAssay AID1671195, Yale University, 2021
The whole screen tested about 22,000 reagents; below is a random part of them. In the full data, about 1,510 (6.9%) were called active. 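Active includes knockdowns raising or lowering LDL uptake; positive z-scores mean more uptake, negative mean less.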

Screen: 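Knockdowns that increase or decrease uptake of fluorescent LDL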 (primary screen)
Cell system: human Huh7 hepatoma cells
Reagents: siRNA pool against human genes, 18 nM
Duration: about 2 to 2.5 days of knockdown, then 8 h LDL uptake
Challenge: DiI-labelled LDL at 30 µg/ml for 8 h, in lipoprotein-deficient serum medium
Detection: 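Per-cell DiI-LDL intensity by automated imaging; well means scaled to the plate median and given as a robust z-score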
Reading the numbers: robust z-score: higher = more LDL uptake after knockdown
Rule for the call: 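a gene counts as active if at least two replicate z-scores exceed ±2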

| gene knocked down | robust z-score, replicate 1 | robust z-score, replicate 2 | robust z-score, replicate 3 | activity call |
| --- | --- | --- | --- | --- |
| WIPI2 | -1.63 | 0.0502 | 0.208 | inactive |
| CRIPT | 1.98 | 3.85 | 2.38 | active |
| LOC392208 (retired record) | -0.929 | -1.4 | -1.43 | inactive |
| CIMIP2A | 0.608 | 0.253 | -1.16 | inactive |
| ACTBL2 | -0.107 | -0.00252 | -0.0301 | inactive |
| AP3B1 | 3.06 | 0.523 | 1.12 | inactive |
| LY6G6E | -0.483 | 0.0842 | -0.887 | inactive |
| SPAG16 | 3.15 | 2.07 | 3.19 | active |
| HMOX2 | 0.778 | 1.27 | 0.843 | inactive |
| LINC01734 | 0.365 | 0.392 | 0.274 | inactive |
| LOC400541 | 0.00489 | 0.105 | 1.23 | inactive |
| PGAP3 | -1.24 | -0.293 | -0.989 | inactive |
| CILP2 | -0.533 | 0.094 | -0.372 | inactive |
| TAS2R40 | 2.56 | 2.2 | 3.01 | active |
| MEGF6 | 0.0388 | -0.638 | 0.23 | inactive |
| PCMTD1 | -0.00851 | -0.481 | -0.209 | inactive |
| RAB40C | 0.547 | -0.99 | -0.507 | inactive |
| MAPK8IP3 | 3.21 | 2.54 | 0.707 | active |
| CNPY2 | 2.28 | 0.897 | -0.662 | inactive |
| LOC441994 (retired record) | -1.5 | -1.72 | -1.8 | inactive |
| RNF157 | -0.882 | -1.23 | 0.207 | inactive |
| BNIP5 | -0.211 | -0.2 | 0.172 | inactive |
| SERGEF | 0.91 | 0.01 | 0.0912 | inactive |
| ILDR1 | 0.981 | 0.74 | 0.632 | inactive |
| NXPH4 | 0.559 | -0.52 | 1.22 | inactive |
| PRMT6 | 0.187 | -0.597 | -0.143 | inactive |
| BRK1 | 0.871 | 0.471 | 3.99 | inactive |
| ALOX12B | -0.337 | -0.611 | -1.19 | inactive |
